From PMC7378253 come the findings set out here.

Chains of the proteins cited; added tags and fusions are not shown.
UniProt Q8CFI0: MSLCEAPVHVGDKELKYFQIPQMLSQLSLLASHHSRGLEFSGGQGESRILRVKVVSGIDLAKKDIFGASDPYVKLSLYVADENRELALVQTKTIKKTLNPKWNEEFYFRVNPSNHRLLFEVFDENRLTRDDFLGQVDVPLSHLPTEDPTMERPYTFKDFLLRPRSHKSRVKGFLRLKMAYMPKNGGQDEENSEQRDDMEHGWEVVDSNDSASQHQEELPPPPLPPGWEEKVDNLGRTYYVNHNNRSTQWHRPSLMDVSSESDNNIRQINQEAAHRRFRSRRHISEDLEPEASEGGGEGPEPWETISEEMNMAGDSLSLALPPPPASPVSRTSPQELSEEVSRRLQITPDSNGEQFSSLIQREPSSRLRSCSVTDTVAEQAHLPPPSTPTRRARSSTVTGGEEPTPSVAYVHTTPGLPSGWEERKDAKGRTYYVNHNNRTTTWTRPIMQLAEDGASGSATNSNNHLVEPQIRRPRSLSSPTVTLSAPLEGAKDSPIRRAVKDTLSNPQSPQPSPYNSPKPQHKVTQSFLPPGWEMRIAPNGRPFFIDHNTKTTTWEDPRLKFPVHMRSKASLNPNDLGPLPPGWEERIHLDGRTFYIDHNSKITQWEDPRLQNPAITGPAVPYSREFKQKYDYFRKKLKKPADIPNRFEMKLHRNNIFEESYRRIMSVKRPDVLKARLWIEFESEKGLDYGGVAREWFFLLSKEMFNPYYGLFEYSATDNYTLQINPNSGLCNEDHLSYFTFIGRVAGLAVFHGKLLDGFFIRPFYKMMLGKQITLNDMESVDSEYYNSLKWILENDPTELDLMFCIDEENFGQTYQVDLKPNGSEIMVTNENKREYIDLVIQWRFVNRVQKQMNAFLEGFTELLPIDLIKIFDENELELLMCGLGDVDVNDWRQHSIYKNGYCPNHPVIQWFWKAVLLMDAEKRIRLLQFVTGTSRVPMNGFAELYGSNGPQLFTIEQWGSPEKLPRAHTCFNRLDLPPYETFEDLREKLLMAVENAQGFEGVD

Results are given in words; binding and its absence hold for the method and conditions named. In cells and extracts the contact can be indirect. Some results given as binding are weak or reduced against the parent protein; the word gives no strength.

In the assay the target is T1, Neuregulin 1 (NRG1) (mouse (endogenous in mPFC tissue of C57BL/6J mice)) (UniProt Q6DR98).
T1 sequence: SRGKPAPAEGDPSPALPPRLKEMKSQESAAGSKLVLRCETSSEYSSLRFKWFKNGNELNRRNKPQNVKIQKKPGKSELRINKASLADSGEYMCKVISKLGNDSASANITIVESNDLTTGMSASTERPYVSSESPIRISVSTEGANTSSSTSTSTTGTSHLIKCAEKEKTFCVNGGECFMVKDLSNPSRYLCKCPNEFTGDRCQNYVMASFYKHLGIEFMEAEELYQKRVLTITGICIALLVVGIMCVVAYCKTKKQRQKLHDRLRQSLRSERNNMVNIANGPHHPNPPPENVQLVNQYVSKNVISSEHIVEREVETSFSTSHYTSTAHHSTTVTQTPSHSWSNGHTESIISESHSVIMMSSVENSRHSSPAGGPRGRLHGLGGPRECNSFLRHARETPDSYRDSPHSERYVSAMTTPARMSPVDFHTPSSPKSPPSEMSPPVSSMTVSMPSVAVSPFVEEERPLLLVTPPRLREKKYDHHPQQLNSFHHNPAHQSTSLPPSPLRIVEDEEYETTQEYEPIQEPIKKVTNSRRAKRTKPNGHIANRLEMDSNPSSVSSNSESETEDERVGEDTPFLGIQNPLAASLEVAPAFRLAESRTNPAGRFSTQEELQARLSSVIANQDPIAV
Briefly: co-IP; mPFC tissue homogenates of CTR, SS and RES mice after CSDS; pre-cleared with protein A + G agarose, incubated with specific antibodies and protein A + G agarose at 4 °C overnight, pellets washed three times with PBS, western blotting. (In general: A western blot detects proteins with antibodies after separation by electrophoresis.)

As for “Nedd4l (neural precursor cell expressed developmentally downregulated 4-like) (from UniProt Q8CFI0 1-1004) (enzyme)”, the binding result is listed as “binds”.
